Source: PubChem BioAssay AID1224830 (NIAID, 2016)
Shown is an unselected part of about 18,000 deposited reagents. Over the whole deposit, about 2,900 (16%) are marked active. 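Calls are made per well; low scores hint the gene aids the LPS response, high scores that it dampens it.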 Repeated entries: four replicate wells of each siRNA pool. No sequences are given here.

- Screen: 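Host factors that control LPS-induced TNF expression in human macrophages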 (primary screen)
- Cell system: human THP-1 monocytic leukaemia cells, TNF dual-luciferase reporter clone, PMA-differentiated to macrophage-like cells
- Reagents: siRNA pool against human genes, 50 nM
- Timing: LPS for 4 h, given about 3 days after siRNA transfection
- Challenge: bacterial LPS (TLR4 ligand), 10 ng/ml
- Read-out: 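TNF firefly reporter luminescence divided by renilla, normalised to the plate median, then turned into a robust z-score for each replicate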
- Direction: TNF reporter robust z-score: higher = stronger TNF reporter response to LPS
- Hit rule: 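Each well counts as active if its z-score is over 2.8 or under -1.5; controls are left without a call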

Knock-down of BACE1 came out at: TNF reporter robust z-score -1.09; inactive.
With knock-down of BACE1 the results were TNF reporter robust z-score -0.39; inactive.
For BACE1, the entry reads TNF reporter robust z-score -0.96; inactive.
With knock-down of BACE1, the screen gave TNF reporter robust z-score -1.16; inactive.
CIART showed TNF reporter robust z-score -0.26; inactive.
Knock-down of CIART came out at: TNF reporter robust z-score -0.31; inactive.
Knock-down of CIART came out at: TNF reporter robust z-score -0.57; inactive.
CIART gave TNF reporter robust z-score -0.71; inactive.
Against CEP170B the deposit lists TNF reporter robust z-score -0.74; inactive.
CEP170B gave TNF reporter robust z-score -0.7; inactive.
CEP170B showed TNF reporter robust z-score -1.39; inactive.
With knock-down of CEP170B the results were TNF reporter robust z-score -0.79; inactive.
SPAST scored TNF reporter robust z-score 0.63; inactive.
SPAST scored TNF reporter robust z-score 1.68; inactive.
With knock-down of SPAST the results were TNF reporter robust z-score 0.56; inactive.
SPAST scored TNF reporter robust z-score 0.92; inactive.
LIX1L gave TNF reporter robust z-score 0.5; inactive.
LIX1L gave TNF reporter robust z-score 0.38; inactive.
LIX1L gave TNF reporter robust z-score 1.94; inactive.
For LIX1L, the entry reads TNF reporter robust z-score 0.65; inactive.
Silencing of MRPS22 gave: TNF reporter robust z-score -0.23; inactive.
MRPS22 scored TNF reporter robust z-score 1.54; inactive.
Silencing of MRPS22 gave: TNF reporter robust z-score -0.34; inactive.
Knock-down of MRPS22 gave: TNF reporter robust z-score 1.28; inactive.
Silencing of RTL6 came out at: TNF reporter robust z-score -1.75; active.
RTL6 showed TNF reporter robust z-score -0.43; inactive.
Knock-down of RTL6 gave: TNF reporter robust z-score -0.96; inactive.
Against RTL6 the deposit lists TNF reporter robust z-score -0.28; inactive.
Against GSTCD the deposit lists TNF reporter robust z-score 0.1; inactive.
Silencing of GSTCD came out at: TNF reporter robust z-score 0.74; inactive.
Silencing of GSTCD came out at: TNF reporter robust z-score 2.76; inactive.
GSTCD showed TNF reporter robust z-score -0.04; inactive.
After knock-down of FN1, the screen gave TNF reporter robust z-score 0.33; inactive.
For FN1, the entry reads TNF reporter robust z-score -0.15; inactive.
Silencing of FN1 resulted in: TNF reporter robust z-score 0.84; inactive.
Silencing of FN1 came out at: TNF reporter robust z-score 1.33; inactive.
Knock-down of TSPAN31 resulted in: TNF reporter robust z-score -0.5; inactive.
TSPAN31 scored TNF reporter robust z-score -1.31; inactive.
TSPAN31 scored TNF reporter robust z-score -1.21; inactive.
Against TSPAN31 the deposit lists TNF reporter robust z-score -0.88; inactive.
Silencing of SERP1 came out at: TNF reporter robust z-score 0.11; inactive.
Against SERP1 the deposit lists TNF reporter robust z-score 1.49; inactive.
With knock-down of SERP1, the record shows TNF reporter robust z-score -1.39; inactive.
With knock-down of SERP1 the results were TNF reporter robust z-score -0.36; inactive.
For HNRNPH1, the entry reads TNF reporter robust z-score -0.25; inactive.
For HNRNPH1 the deposit lists TNF reporter robust z-score -0.87; inactive.
HNRNPH1 scored TNF reporter robust z-score -0.82; inactive.
HNRNPH1 scored TNF reporter robust z-score -0.96; inactive.
Against COLGALT1, the entry reads TNF reporter robust z-score -0.45; inactive.
Against COLGALT1, the entry reads TNF reporter robust z-score -0.8; inactive.
COLGALT1 showed TNF reporter robust z-score 1.1; inactive.
After knock-down of COLGALT1 the results were TNF reporter robust z-score 1.59; inactive.
With knock-down of KLHL40, the record shows TNF reporter robust z-score -0.36; inactive.
With knock-down of KLHL40, the screen gave TNF reporter robust z-score 0.09; inactive.
KLHL40 showed TNF reporter robust z-score -0.42; inactive.
KLHL40 scored TNF reporter robust z-score 0.75; inactive.
With knock-down of GNB4, the record shows TNF reporter robust z-score 0.74; inactive.
GNB4 showed TNF reporter robust z-score -0.32; inactive.
After knock-down of GNB4, the screen gave TNF reporter robust z-score -0.4; inactive.
With knock-down of GNB4 the results were TNF reporter robust z-score -0.82; inactive.

Ordered by “TNF reporter robust z-score” (highest first): some entries from above
SPAST — TNF reporter robust z-score: 0.63; activity call: inactive
CEP170B — TNF reporter robust z-score: -0.79; activity call: inactive
CEP170B — TNF reporter robust z-score: -1.39; activity call: inactive
